According to the supplement of paper PMC12067093, “Discovery and optimisation of a covalent ligand for TRIM25 and its application to targeted protein ubiquitination” (Chemical Science, 2025):
This is one part of the list.

Sequences of proteins named here, by UniProt entry; tags and fusion partners are left off. A change or cut given only in a name is not applied to a line headed by its entry.
UniProt O43823: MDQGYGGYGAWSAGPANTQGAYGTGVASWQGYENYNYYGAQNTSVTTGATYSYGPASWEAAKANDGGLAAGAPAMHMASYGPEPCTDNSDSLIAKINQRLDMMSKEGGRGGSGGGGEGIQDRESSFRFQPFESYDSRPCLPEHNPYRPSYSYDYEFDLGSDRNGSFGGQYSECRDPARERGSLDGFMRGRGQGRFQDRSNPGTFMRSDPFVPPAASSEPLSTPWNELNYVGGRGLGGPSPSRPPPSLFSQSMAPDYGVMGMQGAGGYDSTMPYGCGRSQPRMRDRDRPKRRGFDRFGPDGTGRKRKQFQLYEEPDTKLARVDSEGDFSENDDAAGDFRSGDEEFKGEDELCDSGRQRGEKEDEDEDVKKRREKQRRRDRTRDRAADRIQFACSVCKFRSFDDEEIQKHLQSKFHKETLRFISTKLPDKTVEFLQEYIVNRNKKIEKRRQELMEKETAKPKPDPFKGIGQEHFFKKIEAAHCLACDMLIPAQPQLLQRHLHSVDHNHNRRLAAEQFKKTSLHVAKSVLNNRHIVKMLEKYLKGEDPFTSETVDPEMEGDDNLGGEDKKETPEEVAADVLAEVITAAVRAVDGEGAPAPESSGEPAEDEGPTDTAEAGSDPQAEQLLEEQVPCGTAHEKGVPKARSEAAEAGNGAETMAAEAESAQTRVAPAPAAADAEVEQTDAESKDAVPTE
UniProt Q8WYP5: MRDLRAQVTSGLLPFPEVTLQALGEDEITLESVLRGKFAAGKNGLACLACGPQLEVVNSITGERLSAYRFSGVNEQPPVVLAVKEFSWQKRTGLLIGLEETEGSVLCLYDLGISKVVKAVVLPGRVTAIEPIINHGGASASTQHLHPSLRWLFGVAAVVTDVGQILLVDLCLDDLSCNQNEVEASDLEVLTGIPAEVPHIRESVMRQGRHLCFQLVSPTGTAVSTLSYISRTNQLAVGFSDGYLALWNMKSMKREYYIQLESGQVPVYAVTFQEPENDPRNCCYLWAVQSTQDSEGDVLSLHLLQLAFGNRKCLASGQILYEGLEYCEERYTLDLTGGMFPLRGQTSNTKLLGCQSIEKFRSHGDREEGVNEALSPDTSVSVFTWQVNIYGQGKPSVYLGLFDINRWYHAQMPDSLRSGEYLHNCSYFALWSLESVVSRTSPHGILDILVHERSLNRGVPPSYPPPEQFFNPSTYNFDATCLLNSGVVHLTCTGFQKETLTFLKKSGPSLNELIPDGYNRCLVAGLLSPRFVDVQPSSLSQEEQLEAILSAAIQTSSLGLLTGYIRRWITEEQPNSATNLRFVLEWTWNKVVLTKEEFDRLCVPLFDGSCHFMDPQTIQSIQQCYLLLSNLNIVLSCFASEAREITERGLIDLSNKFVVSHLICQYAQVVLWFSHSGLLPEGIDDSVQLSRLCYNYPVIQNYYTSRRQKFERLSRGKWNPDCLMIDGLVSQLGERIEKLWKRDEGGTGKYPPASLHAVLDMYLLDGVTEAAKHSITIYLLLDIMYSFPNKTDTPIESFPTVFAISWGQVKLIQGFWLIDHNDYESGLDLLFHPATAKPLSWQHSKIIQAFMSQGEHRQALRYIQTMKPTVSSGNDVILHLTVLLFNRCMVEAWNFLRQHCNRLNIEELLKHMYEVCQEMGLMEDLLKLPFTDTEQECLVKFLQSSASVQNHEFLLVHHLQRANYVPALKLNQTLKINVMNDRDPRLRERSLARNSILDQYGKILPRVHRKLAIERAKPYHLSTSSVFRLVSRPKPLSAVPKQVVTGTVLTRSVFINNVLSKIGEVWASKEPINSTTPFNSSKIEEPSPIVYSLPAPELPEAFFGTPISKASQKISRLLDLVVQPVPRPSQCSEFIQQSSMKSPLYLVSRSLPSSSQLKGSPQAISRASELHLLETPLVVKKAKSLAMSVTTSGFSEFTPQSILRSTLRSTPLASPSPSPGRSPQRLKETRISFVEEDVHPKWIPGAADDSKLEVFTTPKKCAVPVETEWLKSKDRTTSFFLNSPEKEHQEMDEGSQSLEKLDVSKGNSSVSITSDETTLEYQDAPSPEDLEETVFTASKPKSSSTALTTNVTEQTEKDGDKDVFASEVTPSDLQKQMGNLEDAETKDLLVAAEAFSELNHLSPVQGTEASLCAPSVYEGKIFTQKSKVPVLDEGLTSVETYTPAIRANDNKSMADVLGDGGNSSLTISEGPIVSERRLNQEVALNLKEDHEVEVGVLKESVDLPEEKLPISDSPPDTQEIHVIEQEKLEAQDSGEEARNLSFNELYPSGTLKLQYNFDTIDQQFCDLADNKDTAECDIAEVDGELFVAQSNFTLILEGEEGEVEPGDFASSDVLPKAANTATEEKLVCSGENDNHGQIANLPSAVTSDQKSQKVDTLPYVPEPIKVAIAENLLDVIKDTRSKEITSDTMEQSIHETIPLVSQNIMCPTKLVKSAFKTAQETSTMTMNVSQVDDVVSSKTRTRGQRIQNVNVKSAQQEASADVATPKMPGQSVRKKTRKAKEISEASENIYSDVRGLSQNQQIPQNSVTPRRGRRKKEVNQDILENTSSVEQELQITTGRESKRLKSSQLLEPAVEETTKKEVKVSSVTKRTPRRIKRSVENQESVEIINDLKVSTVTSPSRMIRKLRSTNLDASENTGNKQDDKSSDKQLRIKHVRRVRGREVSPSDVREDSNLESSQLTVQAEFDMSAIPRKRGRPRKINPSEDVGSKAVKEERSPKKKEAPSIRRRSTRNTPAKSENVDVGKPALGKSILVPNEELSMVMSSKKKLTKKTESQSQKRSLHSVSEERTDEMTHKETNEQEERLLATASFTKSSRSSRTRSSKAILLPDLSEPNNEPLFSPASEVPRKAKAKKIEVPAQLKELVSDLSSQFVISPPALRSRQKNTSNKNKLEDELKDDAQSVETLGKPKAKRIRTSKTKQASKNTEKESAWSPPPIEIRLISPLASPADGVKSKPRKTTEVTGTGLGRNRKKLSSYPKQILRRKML
UniProt P51648: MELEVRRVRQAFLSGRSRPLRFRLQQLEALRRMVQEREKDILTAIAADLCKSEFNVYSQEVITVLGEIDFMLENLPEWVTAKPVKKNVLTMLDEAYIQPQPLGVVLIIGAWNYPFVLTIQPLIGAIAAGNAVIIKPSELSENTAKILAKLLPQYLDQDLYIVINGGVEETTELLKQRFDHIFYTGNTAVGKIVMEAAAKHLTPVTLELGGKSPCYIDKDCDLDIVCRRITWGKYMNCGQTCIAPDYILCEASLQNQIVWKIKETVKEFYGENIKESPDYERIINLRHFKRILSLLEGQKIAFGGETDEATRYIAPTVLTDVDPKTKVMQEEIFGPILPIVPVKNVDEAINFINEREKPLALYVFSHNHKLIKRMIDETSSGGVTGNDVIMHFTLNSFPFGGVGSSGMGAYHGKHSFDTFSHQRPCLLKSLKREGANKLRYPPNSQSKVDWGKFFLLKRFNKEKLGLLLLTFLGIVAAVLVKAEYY
UniProt Q9NYG5, whole entry, looked up: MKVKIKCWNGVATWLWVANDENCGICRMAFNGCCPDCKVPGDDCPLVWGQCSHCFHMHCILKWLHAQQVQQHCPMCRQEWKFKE
UniProt O43488: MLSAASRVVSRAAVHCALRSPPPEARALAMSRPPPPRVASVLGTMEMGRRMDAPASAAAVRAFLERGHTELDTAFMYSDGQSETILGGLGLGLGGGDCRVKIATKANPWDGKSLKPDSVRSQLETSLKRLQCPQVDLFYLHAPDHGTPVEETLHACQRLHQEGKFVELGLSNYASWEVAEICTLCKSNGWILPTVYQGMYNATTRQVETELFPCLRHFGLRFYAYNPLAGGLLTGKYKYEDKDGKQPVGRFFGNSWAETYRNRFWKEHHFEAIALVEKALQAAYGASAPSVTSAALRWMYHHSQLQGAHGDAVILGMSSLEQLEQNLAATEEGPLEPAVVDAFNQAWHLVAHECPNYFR
UniProt O00116: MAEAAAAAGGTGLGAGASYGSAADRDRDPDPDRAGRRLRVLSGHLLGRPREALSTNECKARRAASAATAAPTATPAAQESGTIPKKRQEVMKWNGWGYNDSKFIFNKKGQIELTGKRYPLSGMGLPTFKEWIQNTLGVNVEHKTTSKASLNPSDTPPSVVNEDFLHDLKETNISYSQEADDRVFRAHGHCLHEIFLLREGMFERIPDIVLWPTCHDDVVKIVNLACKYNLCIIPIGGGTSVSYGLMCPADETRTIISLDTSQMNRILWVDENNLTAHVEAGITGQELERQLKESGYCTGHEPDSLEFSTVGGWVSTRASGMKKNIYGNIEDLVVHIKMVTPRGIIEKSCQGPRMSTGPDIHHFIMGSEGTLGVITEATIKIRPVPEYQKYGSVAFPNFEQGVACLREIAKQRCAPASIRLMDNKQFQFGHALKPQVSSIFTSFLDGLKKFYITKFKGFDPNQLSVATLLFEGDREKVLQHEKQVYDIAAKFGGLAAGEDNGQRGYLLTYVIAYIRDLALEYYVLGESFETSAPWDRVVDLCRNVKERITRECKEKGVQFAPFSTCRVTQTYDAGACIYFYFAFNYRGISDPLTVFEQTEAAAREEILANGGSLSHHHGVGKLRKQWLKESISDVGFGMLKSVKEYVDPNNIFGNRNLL
UniProt Q9H1A4, whole entry, looked up: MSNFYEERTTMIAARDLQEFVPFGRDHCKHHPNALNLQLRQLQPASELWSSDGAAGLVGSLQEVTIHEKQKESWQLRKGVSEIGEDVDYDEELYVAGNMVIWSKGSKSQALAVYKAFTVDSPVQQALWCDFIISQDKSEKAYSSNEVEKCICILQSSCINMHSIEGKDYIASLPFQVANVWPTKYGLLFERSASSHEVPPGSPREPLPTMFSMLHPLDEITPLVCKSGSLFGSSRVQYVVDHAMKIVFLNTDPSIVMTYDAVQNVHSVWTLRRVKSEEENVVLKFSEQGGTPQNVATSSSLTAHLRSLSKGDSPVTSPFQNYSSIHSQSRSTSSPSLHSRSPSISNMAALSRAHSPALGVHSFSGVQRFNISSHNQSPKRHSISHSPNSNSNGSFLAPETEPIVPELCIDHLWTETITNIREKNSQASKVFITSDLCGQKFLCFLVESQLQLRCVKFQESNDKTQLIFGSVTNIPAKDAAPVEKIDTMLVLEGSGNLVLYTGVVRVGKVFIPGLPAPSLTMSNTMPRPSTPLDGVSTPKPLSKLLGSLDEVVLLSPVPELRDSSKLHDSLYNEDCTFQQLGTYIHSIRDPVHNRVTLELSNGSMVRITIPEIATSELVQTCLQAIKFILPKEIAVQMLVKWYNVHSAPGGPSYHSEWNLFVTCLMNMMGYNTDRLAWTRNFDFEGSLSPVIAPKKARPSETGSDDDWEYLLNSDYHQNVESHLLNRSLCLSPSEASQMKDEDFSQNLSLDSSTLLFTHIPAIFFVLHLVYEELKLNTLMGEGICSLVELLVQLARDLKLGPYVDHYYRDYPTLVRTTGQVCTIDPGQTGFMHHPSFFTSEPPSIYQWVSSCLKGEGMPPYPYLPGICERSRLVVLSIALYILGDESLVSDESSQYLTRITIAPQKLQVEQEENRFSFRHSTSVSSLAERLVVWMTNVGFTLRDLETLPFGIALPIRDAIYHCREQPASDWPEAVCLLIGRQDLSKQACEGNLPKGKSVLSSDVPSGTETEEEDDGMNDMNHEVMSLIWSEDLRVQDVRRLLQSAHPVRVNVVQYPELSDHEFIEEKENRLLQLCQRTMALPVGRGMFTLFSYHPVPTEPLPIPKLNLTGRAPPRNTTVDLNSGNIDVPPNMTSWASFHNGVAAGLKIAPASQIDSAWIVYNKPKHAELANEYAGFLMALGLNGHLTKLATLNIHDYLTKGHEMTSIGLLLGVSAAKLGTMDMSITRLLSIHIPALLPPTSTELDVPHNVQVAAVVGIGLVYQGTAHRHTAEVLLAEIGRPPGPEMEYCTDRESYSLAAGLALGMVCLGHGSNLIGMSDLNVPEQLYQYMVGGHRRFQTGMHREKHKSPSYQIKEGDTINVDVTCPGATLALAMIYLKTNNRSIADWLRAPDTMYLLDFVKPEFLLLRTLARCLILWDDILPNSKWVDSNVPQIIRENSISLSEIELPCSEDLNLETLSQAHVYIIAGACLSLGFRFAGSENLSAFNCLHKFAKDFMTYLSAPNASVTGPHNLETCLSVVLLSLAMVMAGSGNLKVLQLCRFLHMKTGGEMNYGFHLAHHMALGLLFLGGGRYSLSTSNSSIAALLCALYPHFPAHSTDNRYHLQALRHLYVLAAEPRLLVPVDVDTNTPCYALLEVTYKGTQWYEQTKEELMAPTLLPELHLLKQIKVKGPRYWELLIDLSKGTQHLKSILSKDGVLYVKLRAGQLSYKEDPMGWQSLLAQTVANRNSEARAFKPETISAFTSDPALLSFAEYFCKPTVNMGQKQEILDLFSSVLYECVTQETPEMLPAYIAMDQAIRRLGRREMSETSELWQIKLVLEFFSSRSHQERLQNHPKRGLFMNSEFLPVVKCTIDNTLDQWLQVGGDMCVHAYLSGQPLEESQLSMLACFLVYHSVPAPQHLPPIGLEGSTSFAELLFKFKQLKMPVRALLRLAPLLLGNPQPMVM

Compound: CC1Cc2ccccc2N1C(=O)C1CCCN(C1)C(=O)CCl (mixture of isomers) [TRIM25 ligand 11 (diastereomer mixture)]
Assay: probe-labelled cysteine peptide fold change vs DMSO (competition) (log2 fold change); higher = less target engagement (more negative = stronger competition)
Conditions: THP-1, incubation time: 4 h
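Note: competitive chemoproteomic profiling in live THP-1 cells with an iodoacetamide desthiobiotin (IA-DTB) probe, comparing probe-labelled peptide intensities in compound-treated cells against DMSO-treated controls.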

| Target | probe-labelled cysteine peptide fold change (10 µM) | probe-labelled cysteine peptide fold change (50 µM) |
| --- | --- | --- |
| AKAP8_O43823_173_NGSFGGQYSECR (UniProt O43823) | -0.0788 | -0.16 |
| ALDH18A1_P54886_606_CEYPAACNALETLLIHR (UniProt P54886) | 0.0799 | -0.0327 |
| AHCTF1_Q8WYP5_521_CLVAGLLSPR (UniProt Q8WYP5) | -0.0861 | -0.0696 |
| AKAP9_Q99996_2868_EECGTLK (UniProt Q99996) | -0.119 | 0.0501 |
| ALDH3A2_P51648_50_DILTAIAADLCK (UniProt P51648) | -0.0402 | 0.0674 |
| AKR1A1_P14550_46_HIDCAAIYGNEPEIGEALK (UniProt P14550) | 0.0451 | 0.0223 |
| ALDH3A2_P51648_425_HSFDTFSHQRPCLLK (UniProt P51648) | -0.0226 | -0.197 |
| AIP_O00170_121_HCCGVAQMR (UniProt O00170) | -0.0524 | -0.25 |
| AGPAT5_Q9NUQ2_217_ATHVAFDCMK (UniProt Q9NUQ2) | 0.051 | -0.0118 |
| ANAPC11_Q9NYG5_54_VPGDDCPLVWGQCSHCFHMHCILK (UniProt Q9NYG5) | 0.235 | 0.153 |
| ALDH3B1_P43353_162_ILAEVLPQYVDQSCFAVVLGGPQETGQLLEHR (UniProt P43353) | 0.544 | 0.376 |
| AKR7A2_O43488_132+156_LQCPQVDLFYLHAPDHGTPVEETLHACQR (UniProt O43488) | 0.0707 | 0.0427 |
| ALKBH3_Q96Q83_201_CPIIASLSFGATR (UniProt Q96Q83) | -0.0829 | -0.192 |
| AIMP1_Q12904_211_MVILLCNLK (UniProt Q12904) | 0.0765 | 0.165 |
| ALDOA_P04075_178_YASICQQNGIVPIVEPEILPDGDHDLKR (UniProt P04075) | 0.0218 | 0.164 |
| ANAPC7_Q9UJX3_509_NALANQSDCVLHR (UniProt Q9UJX3) | 0.133 | 0.036 |
| AHCTF1_Q8WYP5_107_RTGLLIGLEETEGSVLCLYDLGISK (UniProt Q8WYP5) | -0.0044 | 0.0178 |
| AMPD2_Q01433_792_LSSCDMCELAR (UniProt Q01433) | 0.137 | 0.208 |
| AGPS_O00116_404_YGSVAFPNFEQGVACLR (UniProt O00116) | 0.097 | 0.0288 |
| AGPS_O00116_565_GVQFAPFSTCR (UniProt O00116) | -0.0113 | 0.111 |
| AIMP2_Q13155_143_LLCEHFR (UniProt Q13155) | -0.017 | 0.0681 |
| AKAP8_O43823_484_KIEAAHCLACDMLIPAQPQLLQR (UniProt O43823) | 0.092 | -0.0514 |
| ALDH16A1_Q8IZ83_249_VAFCGAPEEGR (UniProt Q8IZ83) | -0.187 | 0.136 |
| AHSA1_O95433_301_NGETELCMEGR (UniProt O95433) | 0.0782 | 0.0585 |
| AMACR_Q9UHK6_117_LSGFGQSGSFCR (UniProt Q9UHK6) | 0.105 | -0.0201 |
| ANAPC1_Q9H1A4_225_EPLPTMFSMLHPLDEITPLVCK (UniProt Q9H1A4) | 0.177 | -0.0112 |
| AMOT_Q4VCS5_741_CLDMEGR (UniProt Q4VCS5) | 0.107 | 0.0669 |
| AHRR_A9YTQ3_485_DVGEDQVHPPLCHFPQR (UniProt A9YTQ3) | 0.678 | 0.583 |
| AKAP8L_Q9ULX6_487_KVEAAHCAACDLFIPMQFGIIQK (UniProt Q9ULX6) | -0.14 | -0.0848 |
